PubChem BioAssay AID743454 – Peter MacCallum Cancer Centre | 2014
Here is an unselected part of about 18,000 reagents. Of all reagents, 450 (2.5%) are marked active. 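Single biological run; no consistent viability z cut-off exists, so the class columns, not z-scores, define the calls.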 Entries without a mark were called inactive. No sequences are given here.

Test: 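Knock-downs lowering viability or raising caspase 3/7 activity in vorinostat-treated resistant cells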 (primary screen)
Cells: human HCT116-VR colon cancer cells, selected for vorinostat resistance
Reagent: siRNA pool against human genes, 40 nM siRNA pool
Duration: vorinostat for 24 h, read-out about 72 h after transfection
Conditions: vorinostat at 2.5 µM final
Measured: 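Two measures, CellTiter-Fluor viability and luminescent caspase 3/7 activity, each as fold change against same-plate mock wells, mean of duplicates, then screen-wide robust z-score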
Scale: viability robust z-score: higher = more viable cells than screen typical; caspase robust z-score: higher = more caspase 3/7 activity than screen typical
Rule for the call: 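a knock-down is a hit when classed RV1 or RV2 for lowered viability, or CA1 or CA2 for caspase activation; those lethal without drug were dropped; hits were retested singly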

GREM1 (gremlin 1, DAN family BMP antagonist) | viability hit class = no change; caspase hit class = no change; viability robust z-score = -1.19; caspase robust z-score = -0.17
SPANXN2 (SPANX family member N2) | viability hit class = no change; caspase hit class = no change; viability robust z-score = 0.78; caspase robust z-score = 0.1
MN1 (MN1 proto-oncogene, transcriptional regulator) | viability hit class = no change; caspase hit class = no change; viability robust z-score = -0.86; caspase robust z-score = -1.07
PLAGL1 (PLAG1 like zinc finger 1) | viability hit class = no change; caspase hit class = no change; viability robust z-score = -0.7; caspase robust z-score = 3.15
FOXH1 (forkhead box H1) | viability hit class = no change; caspase hit class = no change; viability robust z-score = -0.64; caspase robust z-score = 3.19
RANBP2 (RAN binding protein 2) | viability hit class = no change; caspase hit class = no change; viability robust z-score = -0.77; caspase robust z-score = 1.5
MOCS2 (molybdenum cofactor synthesis 2) | viability hit class = no change; caspase hit class = no change; viability robust z-score = 0.42; caspase robust z-score = -0.74
FGD2 (FYVE, RhoGEF and PH domain containing 2) | viability hit class = no change; caspase hit class = no change; viability robust z-score = -1.5; caspase robust z-score = 0.38
HEYL | viability hit class = no change; caspase hit class = no change; viability robust z-score = 1.87; caspase robust z-score = -0.55
DNA2 (DNA replication helicase/nuclease 2) | viability hit class = no change; caspase hit class = no change; viability robust z-score = -1.66; caspase robust z-score = 3.75
MYOM3 (myomesin 3) | viability hit class = no change; caspase hit class = no change; viability robust z-score = 0.89; caspase robust z-score = 0.62
HTATSF1 (HIV-1 Tat specific factor 1) | viability hit class = no change; caspase hit class = no change; viability robust z-score = -0.58; caspase robust z-score = 1.8
